This is an account of results in article PMC6597546, “Identification of a potent benzoxaborole drug candidate for treating cryptosporidiosis” (Nature Communications, 2019).

Values joined by “and” are separate entries in the source; they are usually repeats but may differ in a detail not shown here. Equal entries are not always repeated. The source gives many values for each of these; only a part stands here.

The experiment has as its system C. parvum (Bunch Grass Farms Iowa isolate). The experiment is described as follows: Time-kill curve assay in HCT-8 cells. Type of experiment: cell-based, Cryptosporidium parvum. The method, then:
The invasion assay, DNA replication assay, asexual to sexual stage conversion, and time-kill curve assays were performed using fluorescence microscopy to enumerate parasites and host cell nuclei. Staining protocols are individually described for each assay. Unless noted otherwise, the details of image acquisition were as follows. An inverted Nikon Eclipse Ti2000 microscope with an automated stage and Perfect Focus was used with NIS-Elements Advanced Research software (Nikon, USA, version 4.30.01) to image the wells. The microscope was programmed to focus on the center of each well and then take a 3 × 3 composite image per well using a 20 × (0.45 NA) objective. Images were exported as .tiff files and parasites and host nuclei counted using a custom macro on ImageJ (National Institutes of Health, version 1.52a). Data were analyzed using Microsoft Excel and GraphPad Prism (version 6.01). […] C. parvum Iowa isolate oocysts (Bunch Grass Farms, Deary, ID) were treated to induce excystation and added to >90% confluent HCT-8 cells in 384-well plates. […] The monolayers were then washed, fixed, and stained with Vicia villosa lectin and DAPI at the indicated time points, and imaged as for the C. parvum growth assay. Separate 384-well plates were used for each time point. Parasite numbers were normalized to host cell nucleus numbers and expressed as the percentage of host cells infected. Drug-induced parasite decay was isolated from the reduction in parasites over time that occurs spontaneously in the HCT-8 culture system by expressing the number of parasites as the percentage of the number of parasites present at each time point under control (DMSO-treated) conditions.

For `CC1(C)OB(O)c2cc(NC(=O)c3ccc(-n4cccn4)cc3Cl)ccc21` [AN7973], the “% Parasite / host nuclei” value was 26.45% (compound at 3 x EC90, 6 h exposure); 33.04% and 36.63% and 39.78% and 37.64% (compound at 3 x EC90, 12 h exposure); 29.11% and 26.03% and 30.41% and 37.79% (compound at 6 x EC90, 12 h exposure); 29.26% and 27.55% and 32.23% and 31.50% (compound at 9 x EC90, 6 h exposure); 21.29% and 35.19% and 39.07% and 30.31% (compound at 9 x EC90, 12 h exposure); 26.76% and 19.40% and 23.35% and 28.45% (compound at 12 x EC90, 6 h exposure). The “% Parasite / host nuclei” value is 29.59% and 27.46% and 23.71% and 31.24% (compound at 12 x EC90, 12 h exposure); 24.93% and 26.16% and 26.01% (compound at EC50, 6 h exposure); 44.90% and 35.42% and 25.97% and 46.95% (compound at EC50, 12 h exposure); 27.68% and 21.40% and 34.02% and 23.52% (compound at EC90, 6 h exposure); 32.30% and 38.76% and 39.12% and 37.77% (compound at EC90, 12 h exposure).

As for `CC(=O)Oc1ccccc1C(=O)Nc1ncc([N+](=O)[O-])s1` [Nitazoxanide, nitazoxanide], the “% Parasite / host nuclei” value is 23.29% (compound at 3 x EC90, 6 h exposure, listed as Nitazonxanide); 24.13% and 29.86% and 23.25% and 24.87% (compound at 3 x EC90, 12 h exposure, listed as Nitazonxanide); 29.56% and 23.62% and 27.4% and 20.87% (compound at 6 x EC90, 12 h exposure, listed as Nitazonxanide); 27.47% and 30.43% and 30.17% and 34.13% (compound at 9 x EC90, 12 h exposure, listed as Nitazonxanide); 25.49% and 32.12% and 27.1% and 28.94% (compound at 12 x EC90, 12 h exposure, listed as Nitazonxanide); 46.32% and 29.88% and 53.87% and 51.85% (compound at EC50, 12 h exposure, listed as Nitazonxanide). Further, the “% Parasite / host nuclei” value by setting is: (compound at EC90, 6 h exposure, listed as Nitazonxanide) 20.94% and 34.36% and 33.38%; (compound at EC90, 12 h exposure, listed as Nitazonxanide) 33.04% and 24.61% and 32.15% and 25.85%.
